# According to the supplement of paper PMC8728848:
# The other results are listed elsewhere or left out.
# B1: LysMD3 (Homo sapiens), Q7Z3D4 (protein)
# chain: MAGRHQNRSFPLPGVQSSGQVHAFGNCSDSDILEEDAEVYELRSRGKEKVRRSTSRDRLDDIIVLTKDIQEGDTLNAIALQYCCTVADIKRVNNLISDQDFFALRSIKIPVKKFSSLTETLCPPKGRQTSRHSSVQYSSEQQEILPANDSLAYSDSAGSFLKEVDRDIEQIVKCTDNKRENLNEVVSALTAQQMRFEPDNKNTQRKDPYYGADWGIG
# Key:
# Assay in all cases: glycan array binding signal (z-score within array); higher = stronger binding
# Details in all cases: glycan notation: IUPAC condensed, linker removed
# [1] = target: Gal(b1-4)GlcNAc(b1-2)Man(a1-3)[Gal(b1-4)GlcNAc(b1-2)Man(a1-6)]Man(b1-4)GlcNAc(b1-4)GlcNAc
# Method in brief: (§1)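 Glycan array binding is given as a within-array Z-score, which can be read as non-binding when negative. The arrays, 3228 of them, came from the Consortium for Functional Glycomics database and were retained only where the protein sequence was available. Z-scores were averaged across arrays of the same protein sequence at different concentrations or buffers and across linkers.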
# [2] = target: Gal(b1-4)GlcNAc(b1-2)Man(a1-3)[Gal(b1-4)GlcNAc(b1-2)Man(a1-6)]Man(b1-4)GlcNAc(b1-4)[Fuc(a1-6)]GlcNAc
# Method in brief: as §1
# [3] = target: Gal(b1-4)GlcNAc(b1-2)Man(a1-3)[Gal(b1-4)GlcNAc(b1-2)Man(a1-6)][Gal(b1-4)GlcNAc(b1-4)]Man(b1-4)GlcNAc(b1-4)[Fuc(a1-6)]GlcNAc
# Method in brief: as §1
# [4] = target: Gal(b1-4)GlcNAc(b1-2)Man(a1-3)[Gal(b1-4)GlcNAc(b1-2)Man(a1-6)][GlcNAc(b1-4)]Man(b1-4)GlcNAc(b1-4)[Fuc(a1-6)]GlcNAc
# Method in brief: as §1
# [5] = target: Gal(b1-4)GlcNAc(b1-2)Man(a1-3)[GlcNAc(b1-2)Man(a1-6)]Man(b1-4)GlcNAc(b1-4)GlcNAc
# Method in brief: as §1
# [6] = target: Gal(b1-4)GlcNAc(b1-2)Man(a1-3)[GlcNAc(b1-4)][Gal(b1-4)GlcNAc(b1-2)Man(a1-6)]Man(b1-4)GlcNAc(b1-4)GlcNAc
# Method in brief: as §1
# [7] = target: Gal(b1-4)GlcNAc(b1-2)Man(a1-3)[Man(a1-6)]Man(b1-4)GlcNAc(b1-4)GlcNAc
# Method in brief: as §1
# [8] = target: Gal(b1-4)GlcNAc(b1-2)Man(a1-6)Man(b1-4)GlcNAc(b1-4)GlcNAc
# Method in brief: as §1
# [9] = target: Gal(b1-4)GlcNAc(b1-2)Man(a1-6)[GlcNAc(b1-2)Man(a1-3)]Man(b1-4)GlcNAc(b1-4)GlcNAc
# Method in brief: as §1
# [10] = target: Gal(b1-4)GlcNAc(b1-2)Man(a1-6)[Man(a1-3)]Man(b1-4)GlcNAc(b1-4)GlcNAc
# Method in brief: as §1
# [11] = target: Gal(b1-4)GlcNAc(b1-2)[Gal(b1-4)GlcNAc(b1-4)]Man(a1-3)[Gal(b1-4)GlcNAc(b1-2)Man(a1-6)]Man(b1-4)GlcNAc(b1-4)GlcNAc
# Method in brief: as §1
# [12] = target: Gal(b1-4)GlcNAc(b1-2)[Gal(b1-4)GlcNAc(b1-4)]Man(a1-3)[Gal(b1-4)GlcNAc(b1-2)[Gal(b1-4)GlcNAc(b1-6)]Man(a1-6)]Man(b1-4)GlcNAc(b1-4)GlcNAc
# Method in brief: as §1
# [13] = target: Gal(b1-4)GlcNAc(b1-2)[Gal(b1-4)GlcNAc(b1-4)]Man(a1-3)[GlcNAc(b1-4)][Gal(b1-4)GlcNAc(b1-2)Man(a1-6)]Man(b1-4)GlcNAc(b1-4)GlcNAc
# Method in brief: as §1
# [14] = target: Gal(b1-4)GlcNAc(b1-2)[Gal(b1-4)GlcNAc(b1-4)]Man(a1-3)[GlcNAc(b1-4)][Gal(b1-4)GlcNAc(b1-2)[Gal(b1-4)GlcNAc(b1-6)]Man(a1-6)]Man(b1-4)GlcNAc(b1-4)GlcNAc
# Method in brief: as §1
# [15] = target: Gal(b1-4)GlcNAc(b1-2)[Gal(b1-4)GlcNAc(b1-6)]Man(a1-6)[Gal(b1-4)GlcNAc(b1-2)Man(a1-3)]Man(b1-4)GlcNAc(b1-4)GlcNAc
# Method in brief: as §1
# [16] = target: Gal(b1-4)GlcNAc(b1-2)[Gal(b1-4)GlcNAc(b1-6)]Man(a1-6)[Gal(b1-4)GlcNAc(b1-2)Man(a1-3)]Man(b1-4)GlcNAc(b1-4)[Fuc(a1-6)]GlcNAc
# Method in brief: as §1
# [17] = target: Gal(b1-4)GlcNAc(b1-2)[Gal(b1-4)GlcNAc(b1-6)]Man(a1-6)[GlcNAc(b1-4)][Gal(b1-4)GlcNAc(b1-2)Man(a1-3)]Man(b1-4)GlcNAc(b1-4)GlcNAc
# Method in brief: as §1
# [18] = target: Gal(b1-4)GlcNAc(b1-2)[Gal(b1-4)GlcNAc(b1-6)]Man(a1-6)[GlcNAc(b1-4)][Gal(b1-4)GlcNAc(b1-2)[Gal(b1-4)GlcNAc(b1-4)]Man(a1-3)]Man(b1-4)GlcNAc(b1-4)[Fuc(a1-6)]GlcNAc
# Method in brief: as §1
# [19] = target: Gal(b1-4)GlcNAc(b1-3)Gal(b1-3)GalNAc
# Method in brief: as §1
# [20] = target: Gal(b1-4)GlcNAc(b1-3)Gal(b1-3)GlcNAc
# Method in brief: as §1
# [21] = target: Gal(b1-4)GlcNAc(b1-3)Gal(b1-4)Glc
# Method in brief: as §1
# [22] = target: Gal(b1-4)GlcNAc(b1-3)Gal(b1-4)GlcNAc
# Method in brief: as §1
# [23] = target: Gal(b1-4)GlcNAc(b1-3)Gal(b1-4)GlcNAc(b1-2)Man(a1-3)[Gal(b1-4)GlcNAc(b1-3)Gal(b1-4)GlcNAc(b1-2)Man(a1-6)]Man(b1-4)GlcNAc(b1-4)GlcNAc
# Method in brief: as §1
binder,measurement,setting,value
B1,glycan array binding signal (z-score),[1],-0.64
same,glycan array binding signal (z-score),[2],0.035
same,glycan array binding signal (z-score),[3],-0.656
same,glycan array binding signal (z-score),[4],0.435
same,glycan array binding signal (z-score),[5],-1.1
same,glycan array binding signal (z-score),[6],0.056
same,glycan array binding signal (z-score),[7],-0.625
same,glycan array binding signal (z-score),[8],-0.751
same,glycan array binding signal (z-score),[9],-1.08
same,glycan array binding signal (z-score),[10],-1.01
same,glycan array binding signal (z-score),[11],-0.371
same,glycan array binding signal (z-score),[12],-1.49
same,glycan array binding signal (z-score),[13],0.234
same,glycan array binding signal (z-score),[14],-0.147
same,glycan array binding signal (z-score),[15],-1.06
same,glycan array binding signal (z-score),[16],0.202
same,glycan array binding signal (z-score),[17],-1.27
same,glycan array binding signal (z-score),[18],-0.334
same,glycan array binding signal (z-score),[19],-1.05
same,glycan array binding signal (z-score),[20],-0.535
same,glycan array binding signal (z-score),[21],0.367
same,glycan array binding signal (z-score),[22],0.194
same,glycan array binding signal (z-score),[23],1.39

# 2 records drawn at random from the list so far, as already listed:
binder,measurement,setting,value
B1,glycan array binding signal (z-score),[6],0.056
same,glycan array binding signal (z-score),[12],-1.49
